Experimental data reported in paper PMC9106349.
These are yes or no findings as the source states them, for the method shown. In cells and extracts the contact can be indirect. Some results given as binding are weak or reduced against the parent protein; the word gives no strength. Tags and fused reporters may be left off the sequences shown.

Protein sequences, listed by entry. Tags and fused reporters are not part of them.
UniProt Q9ULV0: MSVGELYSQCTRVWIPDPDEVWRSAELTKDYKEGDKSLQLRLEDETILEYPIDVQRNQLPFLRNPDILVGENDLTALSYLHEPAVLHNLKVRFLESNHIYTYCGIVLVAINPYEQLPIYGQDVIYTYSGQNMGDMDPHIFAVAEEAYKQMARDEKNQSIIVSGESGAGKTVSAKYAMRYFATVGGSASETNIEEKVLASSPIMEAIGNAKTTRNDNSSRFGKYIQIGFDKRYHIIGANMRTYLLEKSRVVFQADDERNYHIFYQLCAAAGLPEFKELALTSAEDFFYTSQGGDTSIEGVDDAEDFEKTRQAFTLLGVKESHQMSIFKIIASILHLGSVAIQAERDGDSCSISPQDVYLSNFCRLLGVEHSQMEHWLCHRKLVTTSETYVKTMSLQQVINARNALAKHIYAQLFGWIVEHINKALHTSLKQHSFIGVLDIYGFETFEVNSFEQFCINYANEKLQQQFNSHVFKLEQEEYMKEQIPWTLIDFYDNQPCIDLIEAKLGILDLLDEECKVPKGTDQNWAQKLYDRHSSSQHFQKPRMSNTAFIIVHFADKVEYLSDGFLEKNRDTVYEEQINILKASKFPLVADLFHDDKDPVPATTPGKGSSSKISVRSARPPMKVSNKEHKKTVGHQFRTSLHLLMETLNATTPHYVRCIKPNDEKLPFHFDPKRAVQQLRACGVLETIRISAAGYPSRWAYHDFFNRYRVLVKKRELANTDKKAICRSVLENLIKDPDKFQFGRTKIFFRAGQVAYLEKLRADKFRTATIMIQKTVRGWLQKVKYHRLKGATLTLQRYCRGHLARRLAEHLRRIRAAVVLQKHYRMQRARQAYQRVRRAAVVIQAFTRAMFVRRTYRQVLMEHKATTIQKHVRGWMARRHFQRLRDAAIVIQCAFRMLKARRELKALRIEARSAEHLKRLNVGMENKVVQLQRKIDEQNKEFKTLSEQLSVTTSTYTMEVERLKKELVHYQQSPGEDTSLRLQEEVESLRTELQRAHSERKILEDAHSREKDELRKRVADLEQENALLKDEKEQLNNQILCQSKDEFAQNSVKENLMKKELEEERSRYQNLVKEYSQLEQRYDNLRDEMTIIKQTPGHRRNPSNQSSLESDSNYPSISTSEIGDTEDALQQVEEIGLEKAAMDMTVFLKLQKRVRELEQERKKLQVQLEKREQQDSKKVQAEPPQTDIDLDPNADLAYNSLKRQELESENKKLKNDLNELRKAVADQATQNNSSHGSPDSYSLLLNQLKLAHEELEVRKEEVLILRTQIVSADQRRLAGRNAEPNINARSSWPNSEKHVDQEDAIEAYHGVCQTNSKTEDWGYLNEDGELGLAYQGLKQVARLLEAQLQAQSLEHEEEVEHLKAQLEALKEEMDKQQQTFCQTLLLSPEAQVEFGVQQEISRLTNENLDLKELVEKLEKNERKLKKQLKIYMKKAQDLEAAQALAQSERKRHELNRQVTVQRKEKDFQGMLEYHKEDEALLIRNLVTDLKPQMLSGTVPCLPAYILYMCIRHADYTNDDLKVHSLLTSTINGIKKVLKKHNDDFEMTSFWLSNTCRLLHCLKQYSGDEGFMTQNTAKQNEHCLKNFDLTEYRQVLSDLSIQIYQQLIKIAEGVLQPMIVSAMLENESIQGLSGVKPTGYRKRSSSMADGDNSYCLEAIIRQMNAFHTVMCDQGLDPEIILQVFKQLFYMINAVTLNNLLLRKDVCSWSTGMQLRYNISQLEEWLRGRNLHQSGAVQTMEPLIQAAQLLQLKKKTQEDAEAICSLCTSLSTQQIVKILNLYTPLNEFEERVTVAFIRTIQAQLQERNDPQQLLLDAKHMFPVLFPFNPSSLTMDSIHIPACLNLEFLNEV

Target: T1, myc-tagged UNC45A WT (human) (UniProt Q9H3U1)
T1 sequence: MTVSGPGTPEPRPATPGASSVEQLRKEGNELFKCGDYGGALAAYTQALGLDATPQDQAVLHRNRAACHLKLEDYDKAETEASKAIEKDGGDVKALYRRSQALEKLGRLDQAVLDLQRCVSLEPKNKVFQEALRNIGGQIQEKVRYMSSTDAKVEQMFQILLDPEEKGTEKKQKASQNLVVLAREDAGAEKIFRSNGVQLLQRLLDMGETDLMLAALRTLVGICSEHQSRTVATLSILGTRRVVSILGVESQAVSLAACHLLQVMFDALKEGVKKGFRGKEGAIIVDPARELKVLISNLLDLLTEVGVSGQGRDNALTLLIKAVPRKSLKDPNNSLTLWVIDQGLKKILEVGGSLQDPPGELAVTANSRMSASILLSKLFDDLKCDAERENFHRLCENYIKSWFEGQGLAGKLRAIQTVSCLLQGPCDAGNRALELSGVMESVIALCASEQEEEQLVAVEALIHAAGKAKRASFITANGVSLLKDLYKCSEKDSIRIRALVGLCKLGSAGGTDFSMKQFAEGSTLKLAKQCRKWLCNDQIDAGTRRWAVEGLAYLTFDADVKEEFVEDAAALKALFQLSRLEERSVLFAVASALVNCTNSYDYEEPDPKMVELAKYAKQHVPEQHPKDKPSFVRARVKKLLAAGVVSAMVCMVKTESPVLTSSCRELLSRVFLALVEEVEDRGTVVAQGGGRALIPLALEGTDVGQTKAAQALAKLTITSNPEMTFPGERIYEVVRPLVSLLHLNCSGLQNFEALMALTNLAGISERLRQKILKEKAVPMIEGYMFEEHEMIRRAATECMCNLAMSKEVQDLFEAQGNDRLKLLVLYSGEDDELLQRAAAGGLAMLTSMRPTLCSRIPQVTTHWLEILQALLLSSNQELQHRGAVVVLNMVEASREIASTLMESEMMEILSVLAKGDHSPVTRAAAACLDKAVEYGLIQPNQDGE
Assay: co-IP; myc immunoprecipitates of WT-UNC45A from Caco-2 lysate (μMACS c-myc Isolation Kit), Western blot for myosin VB and HSP90

binding: binds
Substance: myosin VB (from UniProt Q9ULV0 1-1848)
